According to article PMC6078466:
Results are given in words; binding and its absence hold for the method and conditions named. In cells and extracts the contact can be indirect. Some entries that bind do so weakly or less than the wild type.

Chains of the proteins cited; added tags and fusions are not shown.
UniProt O60260: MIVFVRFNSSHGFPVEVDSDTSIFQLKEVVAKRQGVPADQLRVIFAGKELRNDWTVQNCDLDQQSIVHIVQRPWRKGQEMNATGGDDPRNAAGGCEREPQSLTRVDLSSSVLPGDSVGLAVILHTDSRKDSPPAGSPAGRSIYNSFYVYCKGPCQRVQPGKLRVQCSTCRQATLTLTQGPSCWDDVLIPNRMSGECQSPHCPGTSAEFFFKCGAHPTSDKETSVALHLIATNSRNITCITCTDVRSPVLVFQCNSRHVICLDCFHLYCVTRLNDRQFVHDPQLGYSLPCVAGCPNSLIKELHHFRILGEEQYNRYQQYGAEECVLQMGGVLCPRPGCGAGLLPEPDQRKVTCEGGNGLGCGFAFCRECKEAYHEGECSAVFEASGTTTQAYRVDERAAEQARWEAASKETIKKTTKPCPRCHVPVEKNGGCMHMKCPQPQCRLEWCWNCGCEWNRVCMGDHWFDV

What was measured:
[1] = target: T1, mitostatin (human (endogenous in HUVEC)) (UniProt Q9BT92); experiment: condition: only basal conditions, HUVEC without endorepellin; co-IP; endogenous proteins of HUVEC under basal conditions (no endorepellin); immunoprecipitated for mitostatin or for Parkin, immunoblotted for Parkin or mitostatin
T1 sequence: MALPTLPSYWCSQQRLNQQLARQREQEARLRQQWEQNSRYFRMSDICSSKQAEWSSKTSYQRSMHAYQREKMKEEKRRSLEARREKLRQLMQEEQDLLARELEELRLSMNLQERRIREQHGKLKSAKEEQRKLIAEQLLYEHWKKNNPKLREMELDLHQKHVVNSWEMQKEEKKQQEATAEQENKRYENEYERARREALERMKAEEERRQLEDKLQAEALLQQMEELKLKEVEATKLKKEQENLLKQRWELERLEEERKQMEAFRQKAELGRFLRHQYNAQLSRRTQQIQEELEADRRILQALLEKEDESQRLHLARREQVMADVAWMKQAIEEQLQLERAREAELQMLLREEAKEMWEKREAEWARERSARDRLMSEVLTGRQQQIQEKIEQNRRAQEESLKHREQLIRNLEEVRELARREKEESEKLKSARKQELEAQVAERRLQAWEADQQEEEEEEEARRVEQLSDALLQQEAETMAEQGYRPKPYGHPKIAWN

[2] = target: T1, mitostatin (human (endogenous in HUVEC)); experiment: co-IP; endogenous proteins of HUVEC treated with vehicle or endorepellin; immunoprecipitated for mitostatin or for Parkin, immunoblotted for mitofusin 2, Parkin or mitostatin; control rabbit or mouse IgG-G2

binding [1]: no binding
binding [2]: binds
Substance: Parkin (from UniProt O60260 1-465) (enzyme)
